Experimental data reported in paper PMC7438871.
No constants are given. Whether binding was seen depends on the method and setting. Binding seen in cells or lysates may run through a third protein. Some results given as binding are weak or reduced against the parent protein; the word gives no strength. Tags and fused reporters may be left off the sequences shown.

Chains of the proteins cited; added tags and fusions are not shown.
UniProt P61586: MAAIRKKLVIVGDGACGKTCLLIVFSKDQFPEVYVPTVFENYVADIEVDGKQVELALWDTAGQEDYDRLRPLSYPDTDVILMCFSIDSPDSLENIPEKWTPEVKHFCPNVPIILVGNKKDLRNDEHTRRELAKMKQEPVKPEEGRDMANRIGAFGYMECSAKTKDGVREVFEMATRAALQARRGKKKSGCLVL

Target: T1, GST-RhoGDI2 Y130E (human) (UniProt P52566)
T1 sequence: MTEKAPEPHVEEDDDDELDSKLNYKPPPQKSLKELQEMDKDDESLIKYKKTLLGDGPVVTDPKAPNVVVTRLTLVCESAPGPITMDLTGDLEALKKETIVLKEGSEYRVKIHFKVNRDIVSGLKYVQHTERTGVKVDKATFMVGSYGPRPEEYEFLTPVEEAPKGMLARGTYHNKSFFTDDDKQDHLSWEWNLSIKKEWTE
Assay: pull-down; 25 ug GST-RhoGDI2 (WT or mutant) bound to glutathione Sepharose 4B beads, incubated with lysate of starved JURKAT or CCRF-CEM cells (4 x 10^7 cells) at 4 C for 4 h; 25 mM Tris pH 7.5, 150 mM NaCl, 1% Nonidet P-40, 5% glycerol, 60 mM MgCl2; Western blot with RhoA or RhoC antibody; only the target purified

binding: binds
Substance: RhoA (from UniProt P61586 1-193)
